Reference: paper PMC8403768

Chains of the proteins cited; added tags and fusions are not shown. Lines headed by an entry give the natural chain unless they say otherwise; changes in a name come on top.
UniProt P35637: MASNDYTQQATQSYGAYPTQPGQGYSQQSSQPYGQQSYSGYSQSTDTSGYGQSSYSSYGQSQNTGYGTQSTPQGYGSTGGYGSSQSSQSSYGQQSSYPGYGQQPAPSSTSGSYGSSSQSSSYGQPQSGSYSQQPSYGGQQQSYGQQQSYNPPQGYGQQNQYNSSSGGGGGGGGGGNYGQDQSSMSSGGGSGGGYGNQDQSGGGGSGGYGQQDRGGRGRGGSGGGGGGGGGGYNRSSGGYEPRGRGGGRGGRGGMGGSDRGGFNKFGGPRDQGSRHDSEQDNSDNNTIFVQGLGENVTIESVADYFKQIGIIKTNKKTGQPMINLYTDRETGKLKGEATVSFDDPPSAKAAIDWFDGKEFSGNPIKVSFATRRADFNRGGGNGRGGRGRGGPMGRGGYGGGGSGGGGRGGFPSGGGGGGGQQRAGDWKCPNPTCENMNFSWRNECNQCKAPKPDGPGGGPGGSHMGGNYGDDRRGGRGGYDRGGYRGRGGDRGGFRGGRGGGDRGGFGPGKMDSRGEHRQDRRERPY
UniProt P09874: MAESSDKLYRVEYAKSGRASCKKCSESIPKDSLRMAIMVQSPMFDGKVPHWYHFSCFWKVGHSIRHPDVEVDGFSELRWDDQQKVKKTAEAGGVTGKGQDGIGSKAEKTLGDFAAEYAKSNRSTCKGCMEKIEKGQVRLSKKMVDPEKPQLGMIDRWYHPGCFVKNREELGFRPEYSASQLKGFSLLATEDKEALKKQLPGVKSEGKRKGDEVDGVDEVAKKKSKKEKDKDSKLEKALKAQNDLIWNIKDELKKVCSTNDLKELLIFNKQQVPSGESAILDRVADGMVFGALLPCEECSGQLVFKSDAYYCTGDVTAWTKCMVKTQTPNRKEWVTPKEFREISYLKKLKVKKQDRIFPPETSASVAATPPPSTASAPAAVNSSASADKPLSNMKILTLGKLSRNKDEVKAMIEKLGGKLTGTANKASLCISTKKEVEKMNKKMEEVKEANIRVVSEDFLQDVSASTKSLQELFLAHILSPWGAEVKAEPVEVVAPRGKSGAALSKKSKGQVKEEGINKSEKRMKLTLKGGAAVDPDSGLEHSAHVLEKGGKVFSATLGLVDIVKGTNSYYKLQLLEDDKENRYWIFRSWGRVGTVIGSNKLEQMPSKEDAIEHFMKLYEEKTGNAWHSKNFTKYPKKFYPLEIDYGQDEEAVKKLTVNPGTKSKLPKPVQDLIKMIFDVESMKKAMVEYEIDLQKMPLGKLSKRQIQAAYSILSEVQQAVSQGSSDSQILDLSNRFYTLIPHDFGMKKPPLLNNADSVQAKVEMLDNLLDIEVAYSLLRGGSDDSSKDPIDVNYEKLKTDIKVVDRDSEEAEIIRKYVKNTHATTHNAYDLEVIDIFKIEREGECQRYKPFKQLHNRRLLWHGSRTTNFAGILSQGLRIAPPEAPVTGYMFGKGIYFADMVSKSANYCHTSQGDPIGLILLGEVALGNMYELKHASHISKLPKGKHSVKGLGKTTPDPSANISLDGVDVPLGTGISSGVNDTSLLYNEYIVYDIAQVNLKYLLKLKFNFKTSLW
UniProt P28340: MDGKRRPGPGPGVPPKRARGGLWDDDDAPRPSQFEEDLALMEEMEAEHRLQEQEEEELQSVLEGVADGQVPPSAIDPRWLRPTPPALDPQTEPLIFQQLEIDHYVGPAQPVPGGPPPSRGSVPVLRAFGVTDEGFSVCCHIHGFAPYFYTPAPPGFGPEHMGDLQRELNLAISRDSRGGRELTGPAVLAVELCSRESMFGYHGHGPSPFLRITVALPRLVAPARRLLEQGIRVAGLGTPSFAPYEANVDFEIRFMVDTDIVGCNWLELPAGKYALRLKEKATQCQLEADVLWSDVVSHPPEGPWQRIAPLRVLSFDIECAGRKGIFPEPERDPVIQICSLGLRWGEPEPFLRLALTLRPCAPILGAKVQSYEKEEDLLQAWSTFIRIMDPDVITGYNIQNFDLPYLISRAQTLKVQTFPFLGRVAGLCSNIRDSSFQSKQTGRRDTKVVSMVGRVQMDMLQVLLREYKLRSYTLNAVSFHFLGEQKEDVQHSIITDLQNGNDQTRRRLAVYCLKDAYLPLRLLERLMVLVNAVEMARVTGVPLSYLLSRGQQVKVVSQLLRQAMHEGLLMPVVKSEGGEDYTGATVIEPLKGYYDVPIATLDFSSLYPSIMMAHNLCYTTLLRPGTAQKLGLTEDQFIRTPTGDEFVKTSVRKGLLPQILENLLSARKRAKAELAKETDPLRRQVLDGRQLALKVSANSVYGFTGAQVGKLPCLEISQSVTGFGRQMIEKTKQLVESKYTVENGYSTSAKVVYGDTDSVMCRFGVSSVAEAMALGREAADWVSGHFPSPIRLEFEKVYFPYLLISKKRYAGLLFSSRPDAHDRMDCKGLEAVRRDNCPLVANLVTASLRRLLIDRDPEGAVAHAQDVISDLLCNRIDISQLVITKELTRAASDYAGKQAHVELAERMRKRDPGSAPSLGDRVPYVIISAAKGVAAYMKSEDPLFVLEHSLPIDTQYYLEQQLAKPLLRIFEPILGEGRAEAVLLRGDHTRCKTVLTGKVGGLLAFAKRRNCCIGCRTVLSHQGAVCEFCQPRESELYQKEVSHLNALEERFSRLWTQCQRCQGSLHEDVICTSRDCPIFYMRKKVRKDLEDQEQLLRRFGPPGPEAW
UniProt P13010: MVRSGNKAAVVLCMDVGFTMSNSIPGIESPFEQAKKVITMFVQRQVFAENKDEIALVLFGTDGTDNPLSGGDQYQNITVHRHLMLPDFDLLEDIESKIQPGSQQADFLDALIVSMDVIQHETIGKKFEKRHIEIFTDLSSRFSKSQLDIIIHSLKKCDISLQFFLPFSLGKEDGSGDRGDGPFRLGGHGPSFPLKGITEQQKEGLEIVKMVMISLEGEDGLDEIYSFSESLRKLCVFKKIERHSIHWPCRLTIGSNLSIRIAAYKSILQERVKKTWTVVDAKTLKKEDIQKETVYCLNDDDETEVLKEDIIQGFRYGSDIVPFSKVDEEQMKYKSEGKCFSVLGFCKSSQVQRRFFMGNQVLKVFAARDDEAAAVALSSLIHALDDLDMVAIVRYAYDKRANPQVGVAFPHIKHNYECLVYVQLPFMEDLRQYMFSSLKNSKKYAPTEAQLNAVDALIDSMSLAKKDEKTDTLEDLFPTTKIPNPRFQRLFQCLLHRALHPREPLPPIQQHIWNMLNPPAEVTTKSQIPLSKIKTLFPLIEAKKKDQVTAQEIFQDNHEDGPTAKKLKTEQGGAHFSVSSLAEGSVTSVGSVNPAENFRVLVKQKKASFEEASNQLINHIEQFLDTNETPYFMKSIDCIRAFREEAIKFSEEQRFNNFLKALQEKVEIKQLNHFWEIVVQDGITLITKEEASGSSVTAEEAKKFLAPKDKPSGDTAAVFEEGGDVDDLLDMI
UniProt P12004: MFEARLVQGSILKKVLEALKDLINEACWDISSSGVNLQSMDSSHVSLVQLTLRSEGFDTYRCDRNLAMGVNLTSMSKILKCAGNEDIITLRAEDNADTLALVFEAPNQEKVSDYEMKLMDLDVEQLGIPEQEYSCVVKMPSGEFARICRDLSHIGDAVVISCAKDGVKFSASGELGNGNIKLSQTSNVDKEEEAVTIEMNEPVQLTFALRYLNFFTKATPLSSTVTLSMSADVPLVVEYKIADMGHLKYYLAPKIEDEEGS
UniProt P12956: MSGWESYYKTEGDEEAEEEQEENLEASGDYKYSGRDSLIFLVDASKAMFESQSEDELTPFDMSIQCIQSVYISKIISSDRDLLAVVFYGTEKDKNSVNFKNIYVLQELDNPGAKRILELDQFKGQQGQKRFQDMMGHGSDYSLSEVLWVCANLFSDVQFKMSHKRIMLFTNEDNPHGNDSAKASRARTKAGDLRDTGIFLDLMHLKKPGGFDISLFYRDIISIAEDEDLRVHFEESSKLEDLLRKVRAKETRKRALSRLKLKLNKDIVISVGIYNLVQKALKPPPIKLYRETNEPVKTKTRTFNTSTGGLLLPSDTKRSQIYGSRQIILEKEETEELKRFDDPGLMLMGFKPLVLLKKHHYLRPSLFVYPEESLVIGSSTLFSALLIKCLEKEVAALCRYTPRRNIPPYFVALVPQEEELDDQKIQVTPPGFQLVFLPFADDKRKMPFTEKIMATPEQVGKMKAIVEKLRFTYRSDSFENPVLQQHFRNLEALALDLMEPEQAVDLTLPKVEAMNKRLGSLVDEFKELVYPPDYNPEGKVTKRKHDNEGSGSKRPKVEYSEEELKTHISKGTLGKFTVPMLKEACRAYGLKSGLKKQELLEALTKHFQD
UniProt P11387: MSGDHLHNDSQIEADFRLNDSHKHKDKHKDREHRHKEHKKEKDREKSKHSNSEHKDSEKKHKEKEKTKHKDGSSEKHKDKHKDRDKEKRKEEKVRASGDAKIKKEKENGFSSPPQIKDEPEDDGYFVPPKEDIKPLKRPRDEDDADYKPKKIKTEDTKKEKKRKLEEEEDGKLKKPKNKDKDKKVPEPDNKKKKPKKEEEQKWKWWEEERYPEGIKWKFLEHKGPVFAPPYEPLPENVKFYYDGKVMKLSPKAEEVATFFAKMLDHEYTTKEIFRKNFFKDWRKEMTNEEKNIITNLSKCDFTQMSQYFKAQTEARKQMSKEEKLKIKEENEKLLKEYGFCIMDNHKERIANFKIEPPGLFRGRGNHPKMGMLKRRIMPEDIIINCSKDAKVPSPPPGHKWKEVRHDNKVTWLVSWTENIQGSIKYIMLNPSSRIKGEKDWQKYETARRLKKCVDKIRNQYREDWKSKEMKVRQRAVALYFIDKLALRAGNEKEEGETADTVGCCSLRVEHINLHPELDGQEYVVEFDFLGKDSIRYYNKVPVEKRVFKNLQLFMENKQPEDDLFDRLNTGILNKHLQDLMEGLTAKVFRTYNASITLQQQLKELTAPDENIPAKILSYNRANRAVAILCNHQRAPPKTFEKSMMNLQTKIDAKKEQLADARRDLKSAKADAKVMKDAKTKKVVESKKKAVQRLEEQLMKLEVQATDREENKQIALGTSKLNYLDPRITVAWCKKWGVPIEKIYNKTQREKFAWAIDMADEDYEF
UniProt P27695: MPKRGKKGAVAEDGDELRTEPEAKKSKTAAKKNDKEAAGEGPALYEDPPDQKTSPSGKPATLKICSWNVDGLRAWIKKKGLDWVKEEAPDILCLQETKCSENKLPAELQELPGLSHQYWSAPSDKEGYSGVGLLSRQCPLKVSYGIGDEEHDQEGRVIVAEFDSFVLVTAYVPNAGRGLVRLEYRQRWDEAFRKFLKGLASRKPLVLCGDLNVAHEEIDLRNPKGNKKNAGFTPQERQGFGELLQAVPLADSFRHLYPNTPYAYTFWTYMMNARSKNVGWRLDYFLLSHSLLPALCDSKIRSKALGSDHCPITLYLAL

Target: Fused in sarcoma (FUS) (human (endogenous in U-2 OS)) (UniProt P35637)
Assay: affinity purification with mass spectrometry; rapid IP MS of endogenous proteins: U-2 OS cells fixed with 1% formaldehyde, nuclei digested with benzonase, IP with anti-FUS antibody (Bethyl A300-302A) and protein G Dynabeads, RIPA washes, label-free quantitative MS; FUS-/- cells as negative control

Row | binding | Substance
1 | binds | DNA-PK (from UniProt P78527 1-4128)
2 | binds | poly(ADP)-ribosyl (PAR) polymerase 1 (PARP1) (from UniProt P09874 1-1014)
3 | binds | DNA polymerase δ (POLδ or POLD1) (from UniProt P28340 1-1107)
4 | no binding | RIF1 (from UniProt Q5UIP0 1-2472)
5 | binds | Ku80 (from UniProt P13010 1-732)

Continued, substance first:

Row | Substance | binding
6 | proliferating cell nuclear antigen (PCNA) (from UniProt P12004 1-261) | binds
7 | Ku70 (from UniProt P12956 1-609) | binds
8 | TOP1 (from UniProt P11387 1-765) | binds
9 | APEX1 (from UniProt P27695 1-318) (other; other documents disagree on this pair) | binds

These are yes or no findings as the source states them, for the method shown. In cells and extracts the contact can be indirect. Here binding means that the protein was enriched with, or labelled near, the bait; the list need not be complete. No binding means not detected with the bait.
